Literature values in patent US20100068160A1, “COSMETIC AND DERMATOLOGICAL FORMULATIONS INCLUDING PHENOXYALKYL ESTERS” (EVONIK GOLDSCHMIDT GMBH, priority 2008, published 2010).
Some results were stated once for a whole list of compounds, not compound by compound.

Conditions: UV-B filter Ethylhexyl Triazone (UVINUL T 150); customary solvents; cited from earlier work

Compound	Amount of Ethylhexyl Triazone the solvent can dissolve [% by weight]
CCCCCCCC(=O)OC(=O)CCCCCCC [dicaprylyl ether]	≤ 10
CCCCCCCCCCCCCC(C)C [isohexadecane]	≤ 10
